In PMC5833723:
Results are given in words; binding and its absence hold for the method and conditions named. For some assays here: In cells and extracts the contact can be indirect. Some entries that bind do so weakly or less than the wild type.

The chains behind the UniProt entries cited, without tags or fusion partners.
UniProt P31260: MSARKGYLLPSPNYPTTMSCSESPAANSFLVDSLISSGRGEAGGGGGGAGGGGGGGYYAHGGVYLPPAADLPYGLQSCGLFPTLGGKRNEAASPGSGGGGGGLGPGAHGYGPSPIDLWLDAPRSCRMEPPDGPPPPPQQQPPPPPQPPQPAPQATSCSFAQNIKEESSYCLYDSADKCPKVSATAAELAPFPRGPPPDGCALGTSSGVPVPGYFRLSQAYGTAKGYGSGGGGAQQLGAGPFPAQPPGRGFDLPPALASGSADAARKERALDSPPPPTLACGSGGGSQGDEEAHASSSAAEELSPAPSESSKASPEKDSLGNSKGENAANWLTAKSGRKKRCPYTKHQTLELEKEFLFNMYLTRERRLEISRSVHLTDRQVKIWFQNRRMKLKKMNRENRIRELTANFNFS

B1: calpain7 (CAPN7) 550–813 AA clone (domain or fragment, UniProt Q9Y6W3 550-813)
chain: HSTWDAKQGPVKDAYSLANNPQYKLEVQCPQGGAAVWVLLSRHITDKDDFANNREFITMVVYKTDGKKVYYPADPPPYIDGIRINSPHYLTKIKLTTPGTHTFTLVVSQYEKQNTIHYTVRVYSACSFTFSKIPSPYTLSKRINGKWSGQSAGGCGNFQETHKNNPIYQFHIEKTGPLLIELRGPRQYSVGFEVVTVSTLGDPGPHGFLRKSSGDYRCGFCYLELENIPSGIFNIIPSTFLPKQEGPFFLDFNSIIPIKITQLQ
B2: CAPN7, endogenous in Ishikawa cells (enzyme, UniProt Q9Y6W3 1-813)
chain: MDATALERDAVQFARLAVQRDHEGRYSEAVFYYKEAAQALIYAEMAGSSLENIQEKITEYLERVQALHSAVQSKSADPLKSKHQLDLERAHFLVTQAFDEDEKENVEDAIELYTEAVDLCLKTSYETADKVLQNKLKQLARQALDRAEALSEPLTKPVGKISSTSVKPKPPPVRAHFPLGANPFLERPQSFISPQSCDAQGQRYTAEEIEVLRTTSKINGIEYVPFMNVDLRERFAYPMPFCDRWGKLPLSPKQKTTFSKWVRPEDLTNNPTMIYTVSSFSIKQTIVSDCSFVASLAISAAYERRFNKKLITGIIYPQNKDGEPEYNPCGKYMVKLHLNGVPRKVIIDDQLPVDHKGELLCSYSNNKSELWVSLIEKAYMKVMGGYDFPGSNSNIDLHALTGWIPERIAMHSDSQTFSKDNSFRMLYQRFHKGDVLITASTGMMTEAEGEKWGLVPTHAYAVLDIREFKGLRFIQLKNPWSHLRWKGRYSENDVKNWTPELQKYLNFDPRTAQKIDNGIFWISWDDLCQYYDVIYLSWNPGLFKESTCIHSTWDAKQGPVKDAYSLANNPQYKLEVQCPQGGAAVWVLLSRHITDKDDFANNREFITMVVYKTDGKKVYYPADPPPYIDGIRINSPHYLTKIKLTTPGTHTFTLVVSQYEKQNTIHYTVRVYSACSFTFSKIPSPYTLSKRINGKWSGQSAGGCGNFQETHKNNPIYQFHIEKTGPLLIELRGPRQYSVGFEVVTVSTLGDPGPHGFLRKSSGDYRCGFCYLELENIPSGIFNIIPSTFLPKQEGPFFLDFNSIIPIKITQLQ

Key:
[1] = molecular target: Homeo box A10 (HOXA10), yeast two-hybrid bait (UniProt P31260); assay: two-hybrid; yeast two-hybrid screen of a human endometrium cDNA library with HOXA10 as bait
[2] = molecular target: HOXA10, endogenous in Ishikawa cells (human (endogenous in Ishikawa)) (UniProt P31260); assay: co-IP; 800 μg Ishikawa protein extract, endogenous proteins; HOXA10 antibody at 4 °C overnight, Protein G-agarose beads; goat IgG as negative control; immunoblot

Binder	binding [1]	binding [2]
B1	binds	–
B2	–	binds
